No constants are given. Whether binding was seen depends on the method and setting. In cells and extracts the contact can be indirect. Some binding calls cover weakened binding; strength is not graded here.
Tests used:
[1] = molecular target: neuronal nitric oxide synthase (mouse (endogenous in hippocampal DG and cultured neurons of ICR mice)) (UniProt Q9Z0J4); assay: co-IP; synaptosome samples from the hippocampal DG of vehicle- and 5-HT-treated mice; immunoblot of the association of nNOS and CAPON
[2] = molecular target: neuronal nitric oxide synthase (mouse (endogenous in hippocampal DG and cultured neurons of ICR mice)) (UniProt Q9Z0J4); assay: co-IP; hippocampal DG of mice homogenised in lysis buffer; anti-nNOS antibody on protein G-Sepharose beads, overnight; washed with 0.05 M HEPES pH 7.1, 0.15% Triton X-100, 0.15 M NaCl; immunoblot for CAPON, shown as the ratio of CAPON to nNOS; mice treated with vehicle, CMS, CORT, fluoxetine, 5-HT, 8-OH-DPAT or NAN-190
[3] = molecular target: neuronal nitric oxide synthase (mouse (endogenous in hippocampal DG and cultured neurons of ICR mice)) (UniProt Q9Z0J4); assay: proximity ligation; Duolink in situ PLA on fixed primary cultured neurons at 10 DIV with mouse anti-nNOS and rabbit anti-CAPON antibodies; neurons treated with vehicle, CORT, CORT + fluoxetine, 5-HT, 8-OH-DPAT or NAN-190 for 72 h

Chains of the proteins cited; added tags and fusions are not shown.
UniProt Q9Z0J4: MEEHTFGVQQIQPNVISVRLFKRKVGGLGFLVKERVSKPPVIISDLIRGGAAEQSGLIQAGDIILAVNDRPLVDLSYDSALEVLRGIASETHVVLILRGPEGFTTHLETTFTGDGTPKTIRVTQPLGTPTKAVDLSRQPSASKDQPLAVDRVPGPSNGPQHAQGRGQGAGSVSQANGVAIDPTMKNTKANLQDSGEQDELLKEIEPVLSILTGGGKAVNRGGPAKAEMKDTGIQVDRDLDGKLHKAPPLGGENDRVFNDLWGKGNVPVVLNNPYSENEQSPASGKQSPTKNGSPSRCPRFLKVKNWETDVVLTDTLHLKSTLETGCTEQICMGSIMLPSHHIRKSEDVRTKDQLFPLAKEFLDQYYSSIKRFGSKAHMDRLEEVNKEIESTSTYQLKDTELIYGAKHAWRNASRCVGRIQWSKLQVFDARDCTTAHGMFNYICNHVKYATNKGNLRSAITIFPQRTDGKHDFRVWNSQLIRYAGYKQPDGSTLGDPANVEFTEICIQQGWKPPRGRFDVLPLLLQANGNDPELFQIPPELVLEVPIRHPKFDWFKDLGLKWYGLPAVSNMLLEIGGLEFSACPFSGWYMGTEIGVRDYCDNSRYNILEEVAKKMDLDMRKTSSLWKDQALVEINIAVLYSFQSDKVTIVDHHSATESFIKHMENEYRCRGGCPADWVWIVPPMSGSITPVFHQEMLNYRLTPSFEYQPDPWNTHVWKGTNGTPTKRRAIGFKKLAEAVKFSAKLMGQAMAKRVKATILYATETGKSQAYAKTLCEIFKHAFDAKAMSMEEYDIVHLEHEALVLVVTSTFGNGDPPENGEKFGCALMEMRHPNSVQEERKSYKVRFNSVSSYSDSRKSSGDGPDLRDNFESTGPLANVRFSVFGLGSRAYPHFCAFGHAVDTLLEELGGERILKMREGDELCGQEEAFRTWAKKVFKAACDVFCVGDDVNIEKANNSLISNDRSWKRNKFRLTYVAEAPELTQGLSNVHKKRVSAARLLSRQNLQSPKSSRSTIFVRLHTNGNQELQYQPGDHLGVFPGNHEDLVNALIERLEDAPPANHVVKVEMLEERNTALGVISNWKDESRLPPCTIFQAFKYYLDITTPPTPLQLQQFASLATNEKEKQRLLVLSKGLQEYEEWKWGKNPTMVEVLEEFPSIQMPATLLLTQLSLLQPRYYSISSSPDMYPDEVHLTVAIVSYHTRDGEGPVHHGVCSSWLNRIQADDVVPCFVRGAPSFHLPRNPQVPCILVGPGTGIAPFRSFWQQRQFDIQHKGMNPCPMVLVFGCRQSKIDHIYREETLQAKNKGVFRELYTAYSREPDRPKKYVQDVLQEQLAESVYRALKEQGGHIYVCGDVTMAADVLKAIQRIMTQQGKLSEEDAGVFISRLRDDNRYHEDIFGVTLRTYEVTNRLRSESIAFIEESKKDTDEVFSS
UniProt Q9D3A8: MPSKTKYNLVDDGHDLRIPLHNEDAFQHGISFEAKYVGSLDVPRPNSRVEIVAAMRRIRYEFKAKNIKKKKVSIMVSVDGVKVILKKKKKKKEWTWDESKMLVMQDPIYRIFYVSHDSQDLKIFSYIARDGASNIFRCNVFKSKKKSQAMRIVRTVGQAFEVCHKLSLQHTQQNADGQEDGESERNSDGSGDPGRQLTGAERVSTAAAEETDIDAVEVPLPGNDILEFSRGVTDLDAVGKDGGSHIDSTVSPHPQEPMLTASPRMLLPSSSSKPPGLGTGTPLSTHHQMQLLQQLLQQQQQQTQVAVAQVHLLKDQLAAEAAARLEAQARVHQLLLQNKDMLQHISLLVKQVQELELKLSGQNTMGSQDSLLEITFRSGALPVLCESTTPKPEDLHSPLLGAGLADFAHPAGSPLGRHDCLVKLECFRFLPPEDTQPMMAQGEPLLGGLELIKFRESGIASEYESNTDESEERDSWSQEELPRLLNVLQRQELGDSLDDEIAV

Measured: binding

carboxy-terminal PDZ ligand of nNOS (from UniProt Q9D3A8 1-503)
binds: all assays above

From publication PMC9131266
